According to the supplement of paper PMC12889115:
This is one part of the list. Values are raw readings; no control value is given beside them.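 First-pass screen: polymyxin B was added at a level that permeabilizes the Salmonella outer membrane while sparing the inner membrane. DMSO wells, with and without polymyxin B, defined maximum growth. Because plates differed from one another, each plate's data were ranked separately and the compounds with the lowest OD600 were carried forward as hits.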

Test system: Salmonella enterica serovar Typhimurium SL1344
Assay: bacterial growth OD600 after 18 h with compound and polymyxin B; higher = more bacterial growth (less inhibition)
Conditions: 50 µM, Mueller-Hinton broth

| SMILES | bacterial growth OD600 (polymyxin B 1 µg/mL) | bacterial growth OD600 (polymyxin B 0.75 µg/mL) |
| --- | --- | --- |
| CCCN(CC1CCCO1)c1ccc(-c2nc(COC)no2)cn1 (stereo unspecified) | 0.949 | – |
| CC#CCN1C(=O)NC(CCc2ccccc2)(C2CCN(Cc3ccc(OC)cc3O)CC2)C1=O (stereo unspecified) | – | 0.731 |
| CCC1CN(C(=O)c2ccc(NC)nc2)CCN1C(C)C (stereo unspecified) | – | 0.816 |
| O=C(CCc1ccco1)NCc1cccnc1-n1cnc2ccccc21 | 0.862 | – |
| C=CCC(=O)N1CCC(C(=O)Nc2cccc(-c3cccc(Cl)c3)c2)CC1 | 0.764 | – |
| CCN1CCN(C(=O)c2ccc3oc(-c4cccc(F)c4)nc3c2)CC1 | – | 0.798 |
| COc1ccc(CN(C)C(=O)CCC2(Cc3ccc(Cl)cc3)CCC(=O)N2)cc1OC (stereo unspecified) | – | 0.909 |
| O=C(NCc1ccco1)NC1CC(=O)N(CCCc2ccccc2)C1 (stereo unspecified) | 0.861 | – |
| COc1ccc(CC2(CCC(=O)NCCc3ccccc3C(F)(F)F)CCC(=O)N2)c2ccccc12 (stereo unspecified) | – | -0.019 |
| Cc1ccccc1CCN1CCCC(CN(C)C(=O)c2cc[n+]([O-])cc2)C1 (stereo unspecified) | – | 0.812 |
| C[C@@H]1C[C@@H](C(=O)NCc2nc(NCCCc3ccccc3)c3ccccc3n2)NC(=S)N1 | – | 0.829 |
| COc1ccc(OC)c(CNC(=O)c2cc(NC(=O)C3CCCO3)c3c(c2)nc(C2CCC2)n3C)c1 (stereo unspecified) | – | 0.943 |
| CCS(=O)(=O)c1ncc(CN2CCN(C(C)=O)CC2)n1CCCc1ccccc1 | 0.777 | – |
| Cc1nc(CN(C)C(=O)C2(N3C[C@@H](C)O[C@@H](C)C3)Cc3ccccc3C2)cs1 | – | 0.525 |
| CN(CCc1ccccn1)c1nncc(-c2ccccc2F)n1 | 0.919 | – |
| O=C(CCn1cccn1)N1CCC(C2CCN(c3ncccn3)CC2)C1 (stereo unspecified) | – | 0.861 |

Random excerpt: 2 compounds from above

| SMILES | bacterial growth OD600 (polymyxin B 1 µg/mL) | bacterial growth OD600 (polymyxin B 0.75 µg/mL) |
| --- | --- | --- |
| COc1ccc(OC)c(CNC(=O)c2cc(NC(=O)C3CCCO3)c3c(c2)nc(C2CCC2)n3C)c1 (stereo unspecified) | – | 0.943 |
| CCS(=O)(=O)c1ncc(CN2CCN(C(C)=O)CC2)n1CCCc1ccccc1 | 0.777 | – |

Following part.

| SMILES | bacterial growth OD600 (polymyxin B 1 µg/mL) | bacterial growth OD600 (polymyxin B 0.75 µg/mL) |
| --- | --- | --- |
| Fc1ccc(CN2CCOc3ccc(CN4CCC(Oc5cccnc5)CC4)cc3C2)cc1F | – | 0.01 |
| COc1ccc(CN2CCC(Oc3ccccc3C(=O)N3CCCC3)CC2)c(F)c1 | – | 0.673 |
| COc1ccc(CN(C)C2CCCN(CCc3ccccc3)C2)cc1O (stereo unspecified) | – | 0.787 |
| COC(=O)CCCC(=O)NC1CCCN(c2ccc(C(F)(F)F)cn2)C1 (stereo unspecified) | 1.23 | – |
| CCOC(=O)C1(CCc2ccccc2)CCCN(C(=O)c2scc3c2OCCO3)C1 (stereo unspecified) | 0.439 | – |
| CCOc1ccccc1CN1CCCC(CO)(Cc2ccccc2F)C1 (stereo unspecified) | 0.961 | – |
| Cc1cccc(NC(=O)CCC2CCN(C(=O)CCc3scnc3C)CC2)c1 | 0.956 | – |
| COc1cccc(OCc2cc(C(=O)NC(C)c3c(C)n[nH]c3C)n[nH]2)c1 (stereo unspecified) | – | 0.909 |
| O=C(NCCN1Cc2ccccc2OC(c2ccsc2)C1)C(c1cccnc1)N1CCOCC1 (stereo unspecified) | – | 0.776 |
| O=C(CCC1CCN(C(=O)CCc2c[nH]c3ccccc23)CC1)NCC1CCCO1 (stereo unspecified) | 1.02 | – |
| Cc1occc1C(=O)N(C)C(Cc1ccccc1)C1CCN(C(=O)/C=C/c2ccccc2)CC1 (stereo unspecified) | – | 0.161 |
| COc1ccc(C(NC(=O)Cn2nnnc2CN(C)C(C)C)c2ccncc2)cc1 (stereo unspecified) | – | 0.877 |
| COc1ncccc1C(=O)NCc1cccnc1-n1cnc2ccccc21 | 0.845 | – |
| COc1ccc2c(C)nc(N3CCC(NC(C)CCCC(C)(C)O)CC3)nc2c1 (stereo unspecified) | – | 0.807 |
| COc1ccc(CC2(CCC(=O)N3CCCC(C(=O)c4nccn4C)C3)CCC(=O)N2)c(F)c1 (stereo unspecified) | – | 0.721 |
